The target of the assay is T1, human prolactin receptor (human, UniProt P16471 25-622).
T1 sequence (looked up): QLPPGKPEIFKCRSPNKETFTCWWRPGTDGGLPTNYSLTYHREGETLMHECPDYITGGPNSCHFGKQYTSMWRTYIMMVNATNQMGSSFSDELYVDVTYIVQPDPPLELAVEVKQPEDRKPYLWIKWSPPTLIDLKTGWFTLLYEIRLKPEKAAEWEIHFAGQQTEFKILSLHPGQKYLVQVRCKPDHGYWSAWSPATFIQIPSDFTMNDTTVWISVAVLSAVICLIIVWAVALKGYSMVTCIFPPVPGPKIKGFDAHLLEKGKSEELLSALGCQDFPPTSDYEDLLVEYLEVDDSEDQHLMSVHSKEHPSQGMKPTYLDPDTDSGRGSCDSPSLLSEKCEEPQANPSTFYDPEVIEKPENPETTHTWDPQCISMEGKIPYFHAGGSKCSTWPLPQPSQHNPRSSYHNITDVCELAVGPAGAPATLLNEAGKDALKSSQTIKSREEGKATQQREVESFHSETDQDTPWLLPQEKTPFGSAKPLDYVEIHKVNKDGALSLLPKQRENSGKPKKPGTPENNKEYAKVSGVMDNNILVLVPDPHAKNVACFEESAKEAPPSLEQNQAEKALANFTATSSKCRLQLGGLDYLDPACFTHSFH
Put plainly: displacement of [125I]-hPRL, homogenates of HEK 293 cells stably expressing hPRLR (HL-5 clone). (Loss of bound radioactivity is the signal in a displacement assay; it reports binding, not function.)

These are yes or no findings as the source states them, for the method shown. Some results given as binding are weak or reduced against the parent protein; the word gives no strength.

B1: G129P-hPRL (ligand, human, UniProt P01236 29-227, looked up)
chain: LPICPGGAARCQVTLRDLFDRAVVLSHYIHNLSSEMFSEFDKRYTHGRGFITKAINSCHTSSLATPEDKEQAQQMNQKDFLSLIVSILRSWNEPLYHLVTEVRGMQEAPEAILSKAVEIEEQTKRLLEPMELIVSQVHPETKENEIYPVWSGLPSLQMADEESRLSAYYNLLHCLRRDSHKIDNYLKLLKCRIIHNNNC
As for B1, the binding entry is listed as “binds”.

(Values after EP2025683A1 (INSERM (Institut National de la Santé et de la Recherche …, dated 2009).)
